Results: patent US20050282239A1, “Cell-permeable enzyme activation reporter that can be loaded in a high throughput and gentle manner” (priority 2003, published 2005)
At least one compound was matched to its structure with a doubt left.

System: Jurkat cells
Assay: Cellular uptake of fluorescein-peptide conjugates by FACS
Format: cell-based, human

Structure (SMILES): O=C1OC2(c3ccc(O)cc3Oc3cc(O)ccc32)c2ccccc21 [fluorescein]
- cellular uptake (in words): negligible
